According to paper PMC7475176:
These are yes or no findings as the source states them, for the method shown. Binding calls can cover weak binding; strength is not graded here.

Molecular target: BD-GmVQ58 (soybean (Glycine max)) (UniProt I1M649)
Experiment: two-hybrid; Matchmaker Gold Yeast Two-Hybrid System; BD-GmVQ58 (pGBKT7) with AD-GmWRKY32 (pGADT7); double-dropout (-Leu/-Trp) then quadruple-dropout (-Leu/-Trp/-His/-Ade) plates with X-alpha-Gal

## AD-GmWRKY32 (from UniProt I1JEC8)
  binding: binds
